Source: article PMC2877716, “Genome-Wide Identification of Calcium-Response Factor (CaRF) Binding Sites Predicts a Role in Regulation of Neuronal Signaling Pathways”
The exact form of at least one protein or probe is not confirmed. A weaker result is weaker than the reference pair of the same experiment. Protein sequences can lack the tags named with them. For part of these data: At least one verdict was read from the data and is not stated in words by the source.

How the values were obtained:
[1] = target: T1, CaRF (TNT) (Homo sapiens) (UniProt Q8N187); experiment: competition with a labelled probe; conditions: lower affinity than cCaRE, 50-150-fold unlabeled CaRE1; EMSA: 2 uL TNT or purified CaRF with 50 fmol 32P probe, 6% non-denaturing gel; competitors 50-150-fold excess, 30 min pre-incubation; protein translated in vitro; residues 1-725; protein details: N-terminal FLAG (DYKDDDDK); label: 32P when probe
T1 sequence (looked up): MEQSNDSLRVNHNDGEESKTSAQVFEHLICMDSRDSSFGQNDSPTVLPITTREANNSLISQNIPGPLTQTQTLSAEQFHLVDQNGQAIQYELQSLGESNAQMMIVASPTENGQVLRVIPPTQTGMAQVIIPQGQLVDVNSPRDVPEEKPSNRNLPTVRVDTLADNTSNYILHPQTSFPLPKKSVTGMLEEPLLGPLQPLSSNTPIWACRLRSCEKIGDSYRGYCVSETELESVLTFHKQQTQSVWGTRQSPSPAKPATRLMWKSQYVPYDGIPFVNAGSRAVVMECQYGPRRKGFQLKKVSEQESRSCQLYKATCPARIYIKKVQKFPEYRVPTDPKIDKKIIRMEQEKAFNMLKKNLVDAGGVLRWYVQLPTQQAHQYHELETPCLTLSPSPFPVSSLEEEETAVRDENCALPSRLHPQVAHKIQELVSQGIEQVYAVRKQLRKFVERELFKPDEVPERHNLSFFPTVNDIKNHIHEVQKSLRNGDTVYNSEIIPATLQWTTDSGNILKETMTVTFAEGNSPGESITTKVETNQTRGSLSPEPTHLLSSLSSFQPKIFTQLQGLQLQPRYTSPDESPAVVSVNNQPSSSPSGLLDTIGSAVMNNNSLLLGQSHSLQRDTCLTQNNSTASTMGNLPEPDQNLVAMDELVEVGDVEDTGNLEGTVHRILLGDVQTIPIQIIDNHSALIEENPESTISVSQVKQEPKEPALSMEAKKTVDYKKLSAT

[2] = target: T2, recombinant CaRF (Figs 5 and 6) (UniProt Q8VHI4); experiment: competition with a labelled probe; conditions: cCaRE probe, 100-fold excess, EMSA: 2 uL TNT or purified CaRF with 50 fmol 32P probe, 6% non-denaturing gel, competitors 50-150-fold excess, 30 min pre-incubation, recombinant protein
T2 sequence (looked up, limits assumed): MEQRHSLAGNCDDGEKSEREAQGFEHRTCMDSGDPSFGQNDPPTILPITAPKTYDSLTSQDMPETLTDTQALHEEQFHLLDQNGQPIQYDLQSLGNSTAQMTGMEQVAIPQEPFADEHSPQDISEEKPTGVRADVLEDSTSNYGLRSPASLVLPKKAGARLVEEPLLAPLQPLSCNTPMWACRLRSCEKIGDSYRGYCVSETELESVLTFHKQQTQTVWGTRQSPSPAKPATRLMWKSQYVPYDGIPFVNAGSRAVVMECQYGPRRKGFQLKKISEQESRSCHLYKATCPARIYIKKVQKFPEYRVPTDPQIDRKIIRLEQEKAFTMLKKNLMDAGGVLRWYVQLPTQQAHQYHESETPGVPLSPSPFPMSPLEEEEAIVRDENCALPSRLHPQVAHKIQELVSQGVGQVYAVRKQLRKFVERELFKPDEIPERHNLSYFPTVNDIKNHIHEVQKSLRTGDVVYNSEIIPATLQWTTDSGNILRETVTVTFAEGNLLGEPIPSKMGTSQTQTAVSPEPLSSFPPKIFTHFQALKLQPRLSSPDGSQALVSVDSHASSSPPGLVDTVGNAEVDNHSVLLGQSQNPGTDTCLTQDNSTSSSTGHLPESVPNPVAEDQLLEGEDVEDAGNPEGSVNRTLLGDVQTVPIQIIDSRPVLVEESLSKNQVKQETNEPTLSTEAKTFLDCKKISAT

“GAGTGTCTATTTCGAGGCAGAGGAGG (double strand) [CaRE1]”: binds more weakly [1].
“GCCTCGGAGCCAAGACGAGGTTGAGTA (double strand) [CaRF1]”: binds more weakly ([2]; competes less than CaRF2).
“GCCTCGGAGCCAAGACGAGGTTGAGTAGTCTCGTTTTGAATTTTCTCC (double strand) [CaRF1+2]”: binds [2].
